Test systems include STK40 (human); STMN2 (human); STOML2 (human); STOML3 (human); STON1 (human); STRA13 (human); STX18 (human); STX3 (human); STX7 (human); STX8 (human); STXBP2 (human); STYX (human); SULT1A3 (human); SULT1B1 (human); SULT1C2 (human); SULT1C4 (human); SULT2B1 (human); SURF4 (human); SURF5 (human); SUSD2 (human).
What all share (test): protein microarray (ProtoArray v5.0), streptavidin-Alexa Fluor 647
What all share (conditions): 3'-biotin; 20 mM Tris (pH 7.5), 5 mM MgCl2, 100 mM KCl, 0.1% Tween-20, A/T-rich and random oligonucleotide blockers; temperature not stated; high values mean tight binding

Where “and” joins values, the source holds several entries; their conditions need not be identical. Equal values may be shown once. This is one part of the list.

Regarding “GGGAGGCTGAGGCAGG [G4-1 biotinylated (PQS2)]”, the binding signal in the experiment on STK40 (human) is -0.339 z-score; in the experiment with STMN2 (human), -0.284 z-score; with STOML2 (human) it was -0.244 z-score and -0.341 z-score; in the experiment with STOML3 (human), -0.298 z-score; with STON1 (human) it was -0.336 z-score; in the experiment on STRA13 (human), -0.31 z-score. For the same sequence, the binding signal was -0.338 z-score in the experiment on STX18 (human); -0.329 z-score in the experiment on STX3 (human); -0.312 z-score in the experiment with STX7 (human); -0.291 z-score with STX8 (human); -0.319 z-score in the experiment on STXBP2 (human); -0.321 z-score with STYX (human). Further, the binding signal in the experiment with SULT1A3 (human) was -0.333 z-score; in the experiment with SULT1B1 (human), -0.344 z-score; with SULT1C2 (human), -0.342 z-score; in the experiment with SULT1C4 (human) it was -0.337 z-score; with SULT2B1 (human), -0.355 z-score; with SURF4 (human), -0.343 z-score. Moreover, the binding signal in the experiment on SURF5 (human) is -0.324 z-score; in the experiment on SUSD2 (human) it was -0.269 z-score.
